Assay results as given in PMC12460815.
Results are given in words; binding and its absence hold for the method and conditions named. Binding seen in cells or lysates may run through a third protein. Binding calls can cover weak binding; strength is not graded here.

Protein sequences, listed by entry. Tags and fused reporters are not part of them. Lines headed by an entry give the natural chain unless they say otherwise; changes in a name come on top.
UniProt P09038: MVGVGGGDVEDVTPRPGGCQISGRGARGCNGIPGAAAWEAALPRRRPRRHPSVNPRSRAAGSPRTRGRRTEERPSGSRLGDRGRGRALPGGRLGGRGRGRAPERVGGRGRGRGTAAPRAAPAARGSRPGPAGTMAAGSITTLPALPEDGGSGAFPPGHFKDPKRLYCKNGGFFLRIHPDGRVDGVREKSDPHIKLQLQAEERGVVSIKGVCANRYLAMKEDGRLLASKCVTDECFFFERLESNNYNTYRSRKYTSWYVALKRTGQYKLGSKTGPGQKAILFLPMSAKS
UniProt Q14974: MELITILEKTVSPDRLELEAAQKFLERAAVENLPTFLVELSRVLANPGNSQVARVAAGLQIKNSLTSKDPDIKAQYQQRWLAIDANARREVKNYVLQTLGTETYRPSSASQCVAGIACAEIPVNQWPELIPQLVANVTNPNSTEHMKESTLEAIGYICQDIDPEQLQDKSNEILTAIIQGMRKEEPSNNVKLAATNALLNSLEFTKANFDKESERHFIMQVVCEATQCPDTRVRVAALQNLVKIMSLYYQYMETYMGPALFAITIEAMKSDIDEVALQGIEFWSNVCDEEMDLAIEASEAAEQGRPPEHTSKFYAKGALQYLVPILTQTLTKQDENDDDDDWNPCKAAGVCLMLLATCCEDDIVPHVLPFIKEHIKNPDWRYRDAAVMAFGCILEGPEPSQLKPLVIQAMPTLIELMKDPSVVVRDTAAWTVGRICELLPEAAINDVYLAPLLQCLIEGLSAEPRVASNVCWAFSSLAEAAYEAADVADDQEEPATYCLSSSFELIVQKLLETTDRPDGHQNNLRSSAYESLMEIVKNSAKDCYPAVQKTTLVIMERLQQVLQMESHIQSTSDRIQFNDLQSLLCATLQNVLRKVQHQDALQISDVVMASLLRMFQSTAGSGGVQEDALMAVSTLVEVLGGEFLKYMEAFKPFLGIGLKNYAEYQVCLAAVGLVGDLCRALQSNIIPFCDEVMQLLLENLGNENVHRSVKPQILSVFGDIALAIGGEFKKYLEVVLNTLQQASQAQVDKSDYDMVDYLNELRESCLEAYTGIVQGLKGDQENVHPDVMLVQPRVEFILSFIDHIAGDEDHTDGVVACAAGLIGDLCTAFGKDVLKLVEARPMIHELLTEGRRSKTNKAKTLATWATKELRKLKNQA

Target: basic fibroblast growth factor (FGF2) (human (endogenous in BMSCs)) (UniProt P09038)
Assay: co-IP; anti-FGF2 antibody and Protein A/G PLUS-Agarose on RIPA lysates of human BMSCs; immunoblot for KPNB1; normal and aged BMSCs, and BMSCs under osteogenic induction for 1, 4 and 7 days

For “karyopherin beta 1 (KPNB1) (from UniProt Q14974 1-876)”, the binding was “binds”.
